Source: patent publication US7189760B2, “Physiological cooling compositions containing highly purified ethyl ester of N-[[5-methyl-2-(1-methylethyl) cyclohexyl] carbonyl]glycine” (Millennium Specialty Chemicals, priority 2004, dated 2007)

assay: visual and organoleptic test of aqueous solution of the product; assay type: in vivo; details: 25 ppm aqueous solution
Description: Further, the aqueous solutions of products for organoleptic tests were obtained by dissolving appropriate amounts of the products in dipropylene glycol DPG and adding the solution in DPG to an appropriate amount of water.

SMILES | bitter and sour taste and aftertaste
CCOC(=O)CNC(=O)C1CC(C)CCC1C(C)C (stereo not shown) [Comparative Synthetic and Organoleptic Example 1] [ethyl ester of N-[[5-methyl-2-(1-methylethyl)cyclohexyl]carbonyl]glycine, reference compound] | very noticeable bitter and sour taste and aftertaste
CCOC(=O)CNC(=O)C1CC(C)CCC1C(C)C (stereo not shown) [Comparative Synthetic and Organoleptic Example 2 after the a] [ethyl ester of N-[[5-methyl-2-(1-methylethyl)cyclohexyl]carbonyl]glycine, reference compound] | noticeable bitter and sour taste and aftertaste
CCOC(=O)CNC(=O)C1CC(C)CCC1C(C)C (stereo not shown) [Comparative Synthetic and Organoleptic Example 2] [ethyl ester of N-[[5-methyl-2-(1-methylethyl)cyclohexyl]carbonyl]glycine, reference compound] | noticeable bitter and sour taste and aftertaste
CCOC(=O)CNC(=O)C1CC(C)CCC1C(C)C (stereo not shown) [Inventive Example 1, ethyl ester of N-[[5-methyl-2-(1-methylethyl)cyclohexyl]carbonyl]glycine] | no bitter and sour taste or aftertaste
CCOC(=O)CNC(=O)C1CC(C)CCC1C(C)C (stereo not shown) [Inventive Example 2, ethyl ester of N-[[5-methyl-2-(1-methylethyl)cyclohexyl]carbonyl]glycine] | no bitter and sour taste or aftertaste
CCOC(=O)CNC(=O)C1CC(C)CCC1C(C)C (stereo not shown) [Inventive Example 3 (A), ethyl ester of N-[[5-methyl-2-(1-methylethyl)cyclohexyl]carbonyl]glycine] | weak bitter aftertaste
CCOC(=O)CNC(=O)C1CC(C)CCC1C(C)C (stereo not shown) [Inventive Example 4, ethyl ester of N-[[5-methyl-2-(1-methylethyl)cyclohexyl]carbonyl]glycine] | somewhat bitter taste and aftertaste, but weaker than in the unpurified products of the prior art
CCOC(=O)CNC(=O)C1CC(C)CCC1C(C)C (stereo not shown) [Inventive Example 5, ethyl ester of N-[[5-methyl-2-(1-methylethyl)cyclohexyl]carbonyl]glycine] | very weak bitter aftertaste, much weaker than in the unpurified products of the prior art

same assay, conditions: 25 ppm aqueous solution; listed as Inventive Example 3 (B)

SMILES | bitter and sour taste and aftertaste
CCOC(=O)CNC(=O)C1CC(C)CCC1C(C)C (stereo not shown) [Inventive Example 3, ethyl ester of N-[[5-methyl-2-(1-methylethyl)cyclohexyl]carbonyl]glycine] | no bitter or sour taste or aftertaste

same assay, conditions: summary statement

SMILES | odor
CCOC(=O)CNC(=O)C1CC(C)CCC1C(C)C (stereo not shown) [compound 10, ethyl ester of N-[[5-methyl-2-(1-methylethyl)cyclohexyl]carbonyl]glycine] | almost odorless
